Results taken from patent US20240091324A1, “GASTROINTESTINAL HEALTH COMPOSITION” (priority 2019, published 2024).
At least one compound was matched to its structure with a doubt left.

System: Bacteria (AIEC obtained from IBD and IBS patients)
Experiment: Observed therapeutic effective dose determined in the in vitro experiments (Table 4)
Format: cell-based, E. coli
Conditions: Not relevant = no anti-attachment or anti-invasive effect on the AIEC
Description: The observed therapeutic effective dose was determined in the in vitro experiments described herein.
Table 4 summarises the observed therapeutic effective dose for each GaRP formulation component.

Structure (SMILES) | observed therapeutic effective dose, Target cell Bacteria (fg/cell)
C[C@@H](O)[C@H](N)C(=O)O [L-threonine] | Not relevant
CCCC(=O)O [sodium butyrate] | Not relevant
